According to publication PMC7768757:
These are yes or no findings as the source states them, for the method shown. In cells and extracts the contact can be indirect. These calls come from enrichment with a bait or labelling near it, and not all partners need be listed.

How the values were obtained:
[1] = biological target: Tic20-YFP-FLAG3x (Chlamydomonas reinhardtii); test: affinity purification with mass spectrometry; immunopurification of Tic20-YFP-FLAG3x from Chlamydomonas under native conditions, then mass-spectrometric analysis; as in ref. 47
[2] = biological target: Tic214 with three copies of the HA tag (Chlamydomonas reinhardtii); test: affinity purification with mass spectrometry; reciprocal coimmunoprecipitation with triple-HA-tagged Tic214 as bait from Chlamydomonas, then mass spectrometry; gel regions with the antibody chains were excluded
[3] = biological target: Tic20-YFP-FLAG3x (Chlamydomonas reinhardtii); test: affinity purification with mass spectrometry; affinity-purified Tic20-YFP-FLAG3x fraction (digitonin) separated by 2D BN/SDS-PAGE, silver staining, mass spectrometry of discrete spots of the large complex

Measured: binding

B1: Chlamydomonas Toc34 (protein, UniProt A8HYJ1 1-397)
chain: MAQPPRPAEEYDDDVQEDEDELKEGELDDDESHEAASEGGEAAAGDEEAEDDEQDEEDGDEDSQPWAGLNRLPERDDMLDILNELRAEGRKQLTVLLLGKSSVGKSSLINSLLGEAVVRVQAFKLQADTDITTTVVRQVAVGNSEVDGFRLKLIDTCGLEDPEAGDTVNLGALSKIAEDVRGVGIDVVLYCDRLDLYRVDPLDKAIIDAISSTFGRGIWRRTVVALTHANLVQTPPGTDYDSFVNGRVRLIRGAVRGPLFFRPSLPVALVENSETCPVSSESGFRVLPDGEPWLVALVSQLVDMAAARRRPYKYHPRLSSKPSHRFRWLLPVAIAAEVLFYRRFLHPRLDDNQRRVEREEERVWALRGQQRRALGLHRPHRPDKDAAWRLEQMYDDD
binds: all assays above
